Values of other authors in patent US10709699B2, “Pyridone derivative pharmaceutical composition and preparation method thereof” (Jiangsu Hengrui Medicine Co., Ltd., priority 2016, dated 2020).
At least one compound was matched to its structure with a doubt left.

Legend:
[1] = system: malignant melanoma; conditions: chemotherapy for malignant melanoma; cited from earlier work
[2] = system: melanoma; conditions: trial of 322 patients; cited from earlier work

Structure (SMILES)	1-year survival rate [1]	response rate [1]	survival extended compared with patients receiving chemotherapy [2] [months]
CN(C)/N=N/c1[nH]cnc1C(N)=O [Dacarbazine]	about 36%	about 10%	–
CC(=O)Nc1cccc(-n2c(=O)n(C3CC3)c(=O)c3c(Nc4ccc(I)cc4F)n(C)c(=O)c(C)c32)c1 [Mekinist, trametinib]	–	–	3.3
